# Tested on: papilloma
# Type: in vivo, mice
# Source text: Pdx-Cre^+/− (Stock190 014647, Jackson Laboratories, Bar Harbor, Me.), Kras^(G12D)+/− (Stock#008179, Jackson Laboratories), and Trp53^(R172H)+/− (Stock#01XM2, NCI Fredrick Mouse Repository) mice were crossed to generate Pdx-Cre^+/− Kras ^(G12D)+/− Trp53^(R172H)+/− that generate pancreatic tumors (Hingorani et al., Cancer Cell 7:469-483, 2005). At variable penetrance, mice develop papilloma of the face and anogenital region (Hingorani et al., Cancer Cell 7:469-483, 2005; Gades et al., Comp. Med. 58:271-275, 2008). Mice bearing papilloma with no evidence of pancreatic tumors and less than 90 days of age were accrued to this study. Masses were treated by injection of 25 μg of c-di-CDG (Invivogen, San Diego, Calif., Catalog No. tlrl-naldg), Imiquimod (Invivogen) or PBS vehicle.
# STING ligands were administered into the papilloma by direct injection with a total dose of 25 μg administered in a 25 μl injection volume. In the control case, 25 μg of Imiquimod was administered using the same technique. For larger papillomas, the injection was split between different sites within the same growth. The total dose to the growth remained 25 μg in each case. The animals were retreated on day 7 with a second cycle of injections.
# Rapid alterations in small papilloma to resemble normal skin were observed within 18 hours of treatment (FIGS. 2A and B). […]
compound,measurement,setting,value
"Nc1nc2c(ncn2[C@@H]2O[C@@H]3COP(=O)(O)O[C@H]4[C@@H](O)[C@H](n5cnc6c(=O)[nH]c(N)nc65)O[C@@H]4COP(=O)(O)O[C@H]3[C@H]2O)c(=O)[nH]1 [CDG, cyclic diguanylate monophosphate]",histological analysis of injected site,18 hours after injection into small papilloma,inflammatory infiltrate in the subcutaneous space
same,appearance of treated papilloma,"larger papilloma, injections on d0, d1, d7 and d8",evidence of blackening

# From US20170239283A1, “USE OF STING AGONISTS TO TREAT VIRALLY-INDUCED AND PRE-MALIGNANT GROWTHS” (Providence Health & Services - Oregon, priority 2016, published 2017)
